Our source for the binding values is paper PMC8262361.

Protein sequences, listed by entry. Tags and fused reporters are not part of them. Lines headed by an entry give the natural chain unless they say otherwise; changes in a name come on top.
UniProt P16070: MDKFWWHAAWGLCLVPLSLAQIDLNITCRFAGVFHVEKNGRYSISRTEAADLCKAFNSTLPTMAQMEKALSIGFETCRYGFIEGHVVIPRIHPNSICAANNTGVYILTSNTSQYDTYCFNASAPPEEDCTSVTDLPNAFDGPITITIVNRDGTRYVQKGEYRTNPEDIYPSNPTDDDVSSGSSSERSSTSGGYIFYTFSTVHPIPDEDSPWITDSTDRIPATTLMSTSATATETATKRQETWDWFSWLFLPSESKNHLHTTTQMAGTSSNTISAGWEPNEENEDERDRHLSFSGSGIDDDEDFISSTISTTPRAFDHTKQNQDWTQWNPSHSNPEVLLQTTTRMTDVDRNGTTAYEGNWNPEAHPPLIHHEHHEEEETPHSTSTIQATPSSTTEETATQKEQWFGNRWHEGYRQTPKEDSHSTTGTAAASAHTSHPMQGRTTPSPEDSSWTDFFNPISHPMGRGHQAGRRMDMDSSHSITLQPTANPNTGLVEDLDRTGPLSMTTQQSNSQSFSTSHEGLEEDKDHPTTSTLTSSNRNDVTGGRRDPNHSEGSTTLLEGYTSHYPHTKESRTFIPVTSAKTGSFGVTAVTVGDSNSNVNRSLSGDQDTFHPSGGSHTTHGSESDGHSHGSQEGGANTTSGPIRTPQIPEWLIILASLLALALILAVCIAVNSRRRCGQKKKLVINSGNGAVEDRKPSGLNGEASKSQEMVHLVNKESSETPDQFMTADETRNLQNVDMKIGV
UniProt P51532: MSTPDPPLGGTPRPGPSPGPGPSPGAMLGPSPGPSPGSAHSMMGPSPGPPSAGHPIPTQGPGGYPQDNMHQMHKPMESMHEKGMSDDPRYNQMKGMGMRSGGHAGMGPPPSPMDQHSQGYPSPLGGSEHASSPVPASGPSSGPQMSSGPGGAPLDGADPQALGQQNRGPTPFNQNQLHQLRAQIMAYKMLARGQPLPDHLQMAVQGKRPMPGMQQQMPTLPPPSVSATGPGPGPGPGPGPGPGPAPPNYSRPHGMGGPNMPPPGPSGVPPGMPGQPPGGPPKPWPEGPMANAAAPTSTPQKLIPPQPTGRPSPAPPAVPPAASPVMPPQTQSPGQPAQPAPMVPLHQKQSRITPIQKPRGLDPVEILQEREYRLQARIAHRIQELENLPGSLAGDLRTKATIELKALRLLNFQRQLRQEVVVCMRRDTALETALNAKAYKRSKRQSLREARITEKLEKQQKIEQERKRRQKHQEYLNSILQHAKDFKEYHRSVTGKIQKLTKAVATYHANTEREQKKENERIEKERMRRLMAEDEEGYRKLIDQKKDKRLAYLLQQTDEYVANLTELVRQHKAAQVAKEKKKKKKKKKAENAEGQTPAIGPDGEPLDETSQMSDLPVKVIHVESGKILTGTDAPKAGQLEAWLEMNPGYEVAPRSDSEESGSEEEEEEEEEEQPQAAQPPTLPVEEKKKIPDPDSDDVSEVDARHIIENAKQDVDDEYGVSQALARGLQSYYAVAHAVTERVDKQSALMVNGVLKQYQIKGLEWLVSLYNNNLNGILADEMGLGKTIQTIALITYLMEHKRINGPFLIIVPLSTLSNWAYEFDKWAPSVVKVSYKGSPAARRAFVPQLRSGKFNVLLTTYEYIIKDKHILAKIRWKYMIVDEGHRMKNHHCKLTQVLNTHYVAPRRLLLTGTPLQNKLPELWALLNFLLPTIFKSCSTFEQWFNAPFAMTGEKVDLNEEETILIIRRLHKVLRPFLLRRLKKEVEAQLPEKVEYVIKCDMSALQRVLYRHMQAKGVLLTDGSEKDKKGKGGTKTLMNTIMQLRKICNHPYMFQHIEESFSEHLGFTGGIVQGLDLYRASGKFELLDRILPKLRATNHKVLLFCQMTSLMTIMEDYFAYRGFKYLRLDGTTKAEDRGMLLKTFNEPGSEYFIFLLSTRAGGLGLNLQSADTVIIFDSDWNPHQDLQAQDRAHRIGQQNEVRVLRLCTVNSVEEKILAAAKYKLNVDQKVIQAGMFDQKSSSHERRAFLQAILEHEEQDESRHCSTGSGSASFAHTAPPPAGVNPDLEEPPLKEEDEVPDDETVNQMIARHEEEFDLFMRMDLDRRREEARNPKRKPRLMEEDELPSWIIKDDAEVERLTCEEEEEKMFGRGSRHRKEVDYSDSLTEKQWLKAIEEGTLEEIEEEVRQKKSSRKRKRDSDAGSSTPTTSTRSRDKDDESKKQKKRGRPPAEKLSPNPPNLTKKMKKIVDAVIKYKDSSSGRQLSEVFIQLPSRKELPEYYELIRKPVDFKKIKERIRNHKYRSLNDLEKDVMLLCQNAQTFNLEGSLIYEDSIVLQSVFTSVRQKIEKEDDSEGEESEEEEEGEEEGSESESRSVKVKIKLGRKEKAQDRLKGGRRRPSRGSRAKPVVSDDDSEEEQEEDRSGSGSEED

Like-named read-outs stand apart in the source and are kept apart here. These are yes or no findings as the source states them, for the method shown. In cells and extracts the contact can be indirect. Binding can be weak; no strength is given.

Test [1] has as its target CD44 (human (endogenous in IPF MPCs)) (UniProt P16070). Briefly: co-IP; nuclear fractions (NE-PER) of CD44hi IPF MPCs treated with IL-8 or vehicle; precleared with protein A/G beads, nuclear CD44 immunoprecipitated 2 hours at 4°C; Western blot for the partner; isotype antibody as control. In general terms: Immunoblotting shows a protein as a band on a membrane.
Test [2] shares this target. The test is described as above. This is another data set of the same source.

Take “Brahma-related gene 1 (Brg1) (from UniProt P51532 1-1647)”: in test [1], the binding entry was “binds”.

B1: zinc finger E-box binding homeobox 1 (Zeb1) (protein, UniProt P37275 1-1124)
chain: MADGPRCKRRKQANPRRNNVTNYNTVVETNSDSDDEDKLHIVEEESVTDAADCEGVPEDDLPTDQTVLPGRSSEREGNAKNCWEDDRKEGQEILGPEAQADEAGCTVKDDECESDAENEQNHDPNVEEFLQQQDTAVIFPEAPEEDQRQGTPEASGHDENGTPDAFSQLLTCPYCDRGYKRFTSLKEHIKYRHEKNEDNFSCSLCSYTFAYRTQLERHMTSHKSGRDQRHVTQSGCNRKFKCTECGKAFKYKHHLKEHLRIHSGEKPYECPNCKKRFSHSGSYSSHISSKKCISLIPVNGRPRTGLKTSQCSSPSLSASPGSPTRPQIRQKIENKPLQEQLSVNQIKTEPVDYEFKPIVVASGINCSTPLQNGVFTGGGPLQATSSPQGMVQAVVLPTVGLVSPISINLSDIQNVLKVAVDGNVIRQVLENNQANLASKEQETINASPIQQGGHSVISAISLPLVDQDGTTKIIINYSLEQPSQLQVVPQNLKKENPVATNSCKSEKLPEDLTVKSEKDKSFEGGVNDSTCLLCDDCPGDINALPELKHYDLKQPTQPPPLPAAEAEKPESSVSSATGDGNLSPSQPPLKNLLSLLKAYYALNAQPSAEELSKIADSVNLPLDVVKKWFEKMQAGQISVQSSEPSSPEPGKVNIPAKNNDQPQSANANEPQDSTVNLQSPLKMTNSPVLPVGSTTNGSRSSTPSPSPLNLSSSRNTQGYLYTAEGAQEEPQVEPLDLSLPKQQGELLERSTITSVYQNSVYSVQEEPLNLSCAKKEPQKDSCVTDSEPVVNVIPPSANPINIAIPTVTAQLPTIVAIADQNSVPCLRALAANKQTILIPQVAYTYSTTVSPAVQEPPLKVIQPNGNQDERQDTSSEGVSNVEDQNDSDSTPPKKKMRKTENGMYACDLCDKIFQKSSSLLRHKYEHTGKRPHECGICKKAFKHKHHLIEHMRLHSGEKPYQCDKCGKRFSHSGSYSQHMNHRYSYCKREAEERDSTEQEEAGPEILSNEHVGARASPSQGDSDERESLTREEDEDSEKEEEEEDKEMEELQEEKECEKPQGDEEEEEEEEEVEEEEVEEAENEGEEAKTEGLMKDDRAESQASSLGQKVGESSEQVSEEKTNEA
Turning to B1, the binding result in test [2] was “binds”.
